Measured values: the supplement of paper PMC8728848
The list shows a part of the results.

What was measured:
Test in all cases: glycan array binding signal (z-score within array); higher = stronger binding
Settings in all cases: glycan notation: IUPAC condensed, linker removed
Gal3S(b1-4)Glc = molecular target: Gal3S(b1-4)Glc
In short: (§1)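 Glycan array data were curated from 3228 arrays in the Consortium for Functional Glycomics database and kept only where the protein sequence was available. Glycan names were converted to IUPAC-condensed notation, and columns mapping to the same glycan were averaged. The binding signal is a within-array Z-score, averaged across arrays of the same protein sequence at different concentrations or buffers and across linkers. Negative Z-scores can be read as non-binding.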

Gal3S(b1-4)Glc6S = molecular target: Gal3S(b1-4)Glc6S
In short: as §1

Gal3S(b1-4)GlcNAc = molecular target: Gal3S(b1-4)GlcNAc
In short: as §1

[1] = molecular target: Gal3S(b1-4)[Fuc(a1-3)]Glc6S
In short: as §1

[2] = molecular target: Gal3S(b1-4)[Fuc(a1-3)]GlcNAc
In short: as §1

[3] = molecular target: Gal3S(b1-4)[Fuc(a1-3)]GlcNAc6S
In short: as §1

Gal3S4S(b1-4)GlcNAc = molecular target: Gal3S4S(b1-4)GlcNAc
In short: as §1

Gal3S6S(b1-4)GlcNAc = molecular target: Gal3S6S(b1-4)GlcNAc
In short: as §1

Gal3S6S(b1-4)GlcNAc6S = molecular target: Gal3S6S(b1-4)GlcNAc6S
In short: as §1

Gal4S(b1-4)GlcNAc = molecular target: Gal4S(b1-4)GlcNAc
In short: as §1

Gal4S6S(b1-4)GlcNAc = molecular target: Gal4S6S(b1-4)GlcNAc
In short: as §1

Gal6P(b1-4)GlcNAc = molecular target: Gal6P(b1-4)GlcNAc
In short: as §1

Gal6S(b1-3)GlcNAc = molecular target: Gal6S(b1-3)GlcNAc
In short: as §1

Gal6S(b1-3)GlcNAc6S = molecular target: Gal6S(b1-3)GlcNAc6S
In short: as §1

Gal6S(b1-4)Glc = molecular target: Gal6S(b1-4)Glc
In short: as §1

Gal6S(b1-4)Glc6S = molecular target: Gal6S(b1-4)Glc6S
In short: as §1

Gal6S(b1-4)GlcNAc = molecular target: Gal6S(b1-4)GlcNAc
In short: as §1

Gal6S(b1-4)GlcNAc6S = molecular target: Gal6S(b1-4)GlcNAc6S
In short: as §1

GalNAc(a1-3)Gal = molecular target: GalNAc(a1-3)Gal
In short: as §1

GalNAc(a1-3)GalNAc = molecular target: GalNAc(a1-3)GalNAc
In short: as §1

[4] = molecular target: GalNAc(a1-3)GalNAc(b1-3)Gal(a1-4)Gal(b1-4)Glc
In short: as §1

[5] = molecular target: GalNAc(a1-3)GalNAc(b1-3)Gal(a1-4)Gal(b1-4)GlcNAc
In short: as §1

GalNAc(b1-3)Gal = molecular target: GalNAc(b1-3)Gal
In short: as §1

[6] = molecular target: GalNAc(b1-3)Gal(a1-4)Gal(b1-4)GlcNAc
In short: as §1

[7] = molecular target: GalNAc(b1-3)Gal(a1-4)Gal(b1-4)GlcNAc(b1-3)Gal(b1-4)Glc
In short: as §1

[8] = molecular target: GalNAc(b1-3)Gal(a1-6)Gal(b1-4)Glc
In short: as §1

GalNAc(b1-3)GalNAc = molecular target: GalNAc(b1-3)GalNAc
In short: as §1

GalNAc(b1-3)GlcNAc = molecular target: GalNAc(b1-3)GlcNAc
In short: as §1

GalNAc(b1-4)Gal(b1-4)Glc = molecular target: GalNAc(b1-4)Gal(b1-4)Glc
In short: as §1

GalNAc(b1-4)GlcNAc = molecular target: GalNAc(b1-4)GlcNAc
In short: as §1

[9] = molecular target: GalNAc(b1-4)GlcNAc(b1-2)Man
In short: as §1

[10] = molecular target: GalNAc(b1-4)GlcNAc(b1-2)Man(a1-3)[GalNAc(b1-4)GlcNAc(b1-2)Man(a1-6)]Man(b1-4)GlcNAc(b1-4)GlcNAc
In short: as §1

[11] = molecular target: GalNAc(b1-4)GlcNAc(b1-3)GalNAc(b1-4)GlcNAc
In short: as §1

GalNAc(b1-4)GlcNAc6S = molecular target: GalNAc(b1-4)GlcNAc6S
In short: as §1

GalNAc(b1-6)GalNAc = molecular target: GalNAc(b1-6)GalNAc
In short: as §1

GalNAc3S(b1-4)GlcNAc = molecular target: GalNAc3S(b1-4)GlcNAc
In short: as §1

GalNAc3S(b1-4)GlcNAc3S = molecular target: GalNAc3S(b1-4)GlcNAc3S
In short: as §1

[12] = molecular target: GalNAc3S(b1-4)[Fuc(a1-3)]GlcNAc
In short: as §1

GalNAc4S6S(b1-4)GlcNAc = molecular target: GalNAc4S6S(b1-4)GlcNAc
In short: as §1

GalNAc6S(b1-4)GlcNAc = molecular target: GalNAc6S(b1-4)GlcNAc
In short: as §1

Glc(a1-4)Glc = molecular target: Glc(a1-4)Glc
In short: as §1

[13] = molecular target: Glc(a1-4)Glc(a1-4)Glc(a1-4)Glc
In short: as §1

Glc(a1-6)Glc(a1-6)Glc = molecular target: Glc(a1-6)Glc(a1-6)Glc
In short: as §1

[14] = molecular target: Glc(a1-6)Glc(a1-6)Glc(a1-6)Glc
In short: as §1

Glc(b1-4)Glc = molecular target: Glc(b1-4)Glc
In short: as §1

B1: Thrombomodulin Lectin (Mus musculus) (protein)
chain: LSALAKLQPTGSQCVEHECFALFQGPATFLDASQACQRLQGHLMTVRSSVAADVISLLLSQSSMDLGPWIGLQLPQGCDDPVHLGPLRGFQWVTGDNHTSYSRWARPNDQTAPLCGPLCVTVSTATEAAPGEPAWEEKPCETETQGFLCEFYFTASCRVDPIPVREDTKEEEGAGEPPVSPTPGSPTGPPSARPVLDEPRVPITQNPCPPLKECPPCAAPDLEGGPSVFIFPPKIKDVLMISLSPMVTCVVVDVSEDDPDVQISWFVNNVEVHTAQTQTHREDYNSTLRVVSALPIQHQDWMSGKAFACAVNNRALPSPIEKTISKPRGPVRAPQVYVLPPPAEEMTKKEFSLTCMITGFLPAEIAVDWTSNGRTEQNYKNTATVLDSDGSYFMYSKLRVQKSTWERGSLFACSVVHEGLHNHLTTKTISRSLGK
Gal3S(b1-4)Glc
  glycan array binding signal (z-score): -0.449
Gal3S(b1-4)Glc6S
  glycan array binding signal (z-score): -0.107
Gal3S(b1-4)GlcNAc
  glycan array binding signal (z-score): -0.17
[1]
  glycan array binding signal (z-score): 0.039
[2]
  glycan array binding signal (z-score): 0.2
[3]
  glycan array binding signal (z-score): -0.939
Gal3S4S(b1-4)GlcNAc
  glycan array binding signal (z-score): -1.16
Gal3S6S(b1-4)GlcNAc
  glycan array binding signal (z-score): 0.988
Gal3S6S(b1-4)GlcNAc6S
  glycan array binding signal (z-score): -0.274
Gal4S(b1-4)GlcNAc
  glycan array binding signal (z-score): -0.315
Gal4S6S(b1-4)GlcNAc
  glycan array binding signal (z-score): -0.555
Gal6P(b1-4)GlcNAc
  glycan array binding signal (z-score): -0.268
Gal6S(b1-3)GlcNAc
  glycan array binding signal (z-score): -1.19
Gal6S(b1-3)GlcNAc6S
  glycan array binding signal (z-score): -1.18
Gal6S(b1-4)Glc
  glycan array binding signal (z-score): -1.09
Gal6S(b1-4)Glc6S
  glycan array binding signal (z-score): 1.87
Gal6S(b1-4)GlcNAc
  glycan array binding signal (z-score): -1.11
Gal6S(b1-4)GlcNAc6S
  glycan array binding signal (z-score): -1.89
GalNAc(a1-3)Gal
  glycan array binding signal (z-score): 1.55
GalNAc(a1-3)GalNAc
  glycan array binding signal (z-score): -0.539
[4]
  glycan array binding signal (z-score): -1.14
[5]
  glycan array binding signal (z-score): -1.14
GalNAc(b1-3)Gal
  glycan array binding signal (z-score): 0.486
[6]
  glycan array binding signal (z-score): 0.534
[7]
  glycan array binding signal (z-score): -0.119
[8]
  glycan array binding signal (z-score): -1.12
GalNAc(b1-3)GalNAc
  glycan array binding signal (z-score): 0.517
GalNAc(b1-3)GlcNAc
  glycan array binding signal (z-score): -0.517
GalNAc(b1-4)Gal(b1-4)Glc
  glycan array binding signal (z-score): -0.236
GalNAc(b1-4)GlcNAc
  glycan array binding signal (z-score): -0.625
[9]
  glycan array binding signal (z-score): 0.427
[10]
  glycan array binding signal (z-score): 0.023
[11]
  glycan array binding signal (z-score): -0.101
GalNAc(b1-4)GlcNAc6S
  glycan array binding signal (z-score): 0.18
GalNAc(b1-6)GalNAc
  glycan array binding signal (z-score): 0.92
GalNAc3S(b1-4)GlcNAc
  glycan array binding signal (z-score): 0.187
GalNAc3S(b1-4)GlcNAc3S
  glycan array binding signal (z-score): 0.538
[12]
  glycan array binding signal (z-score): 1.34
GalNAc4S6S(b1-4)GlcNAc
  glycan array binding signal (z-score): 1.6
GalNAc6S(b1-4)GlcNAc
  glycan array binding signal (z-score): 0.468
Glc(a1-4)Glc
  glycan array binding signal (z-score): 0.733
[13]
  glycan array binding signal (z-score): 0.317
Glc(a1-6)Glc(a1-6)Glc
  glycan array binding signal (z-score): -0.53
[14]
  glycan array binding signal (z-score): 1.9
Glc(b1-4)Glc
  glycan array binding signal (z-score): -0.324
